Measured values: PMC11055677
Results are given in words; binding and its absence hold for the method and conditions named. In cells and extracts the contact can be indirect. Here binding means that the protein was enriched with, or labelled near, the bait; the list need not be complete. Tags and fused reporters may be left off the sequences shown.

The chains behind the UniProt entries cited, without tags or fusion partners.
UniProt O60673: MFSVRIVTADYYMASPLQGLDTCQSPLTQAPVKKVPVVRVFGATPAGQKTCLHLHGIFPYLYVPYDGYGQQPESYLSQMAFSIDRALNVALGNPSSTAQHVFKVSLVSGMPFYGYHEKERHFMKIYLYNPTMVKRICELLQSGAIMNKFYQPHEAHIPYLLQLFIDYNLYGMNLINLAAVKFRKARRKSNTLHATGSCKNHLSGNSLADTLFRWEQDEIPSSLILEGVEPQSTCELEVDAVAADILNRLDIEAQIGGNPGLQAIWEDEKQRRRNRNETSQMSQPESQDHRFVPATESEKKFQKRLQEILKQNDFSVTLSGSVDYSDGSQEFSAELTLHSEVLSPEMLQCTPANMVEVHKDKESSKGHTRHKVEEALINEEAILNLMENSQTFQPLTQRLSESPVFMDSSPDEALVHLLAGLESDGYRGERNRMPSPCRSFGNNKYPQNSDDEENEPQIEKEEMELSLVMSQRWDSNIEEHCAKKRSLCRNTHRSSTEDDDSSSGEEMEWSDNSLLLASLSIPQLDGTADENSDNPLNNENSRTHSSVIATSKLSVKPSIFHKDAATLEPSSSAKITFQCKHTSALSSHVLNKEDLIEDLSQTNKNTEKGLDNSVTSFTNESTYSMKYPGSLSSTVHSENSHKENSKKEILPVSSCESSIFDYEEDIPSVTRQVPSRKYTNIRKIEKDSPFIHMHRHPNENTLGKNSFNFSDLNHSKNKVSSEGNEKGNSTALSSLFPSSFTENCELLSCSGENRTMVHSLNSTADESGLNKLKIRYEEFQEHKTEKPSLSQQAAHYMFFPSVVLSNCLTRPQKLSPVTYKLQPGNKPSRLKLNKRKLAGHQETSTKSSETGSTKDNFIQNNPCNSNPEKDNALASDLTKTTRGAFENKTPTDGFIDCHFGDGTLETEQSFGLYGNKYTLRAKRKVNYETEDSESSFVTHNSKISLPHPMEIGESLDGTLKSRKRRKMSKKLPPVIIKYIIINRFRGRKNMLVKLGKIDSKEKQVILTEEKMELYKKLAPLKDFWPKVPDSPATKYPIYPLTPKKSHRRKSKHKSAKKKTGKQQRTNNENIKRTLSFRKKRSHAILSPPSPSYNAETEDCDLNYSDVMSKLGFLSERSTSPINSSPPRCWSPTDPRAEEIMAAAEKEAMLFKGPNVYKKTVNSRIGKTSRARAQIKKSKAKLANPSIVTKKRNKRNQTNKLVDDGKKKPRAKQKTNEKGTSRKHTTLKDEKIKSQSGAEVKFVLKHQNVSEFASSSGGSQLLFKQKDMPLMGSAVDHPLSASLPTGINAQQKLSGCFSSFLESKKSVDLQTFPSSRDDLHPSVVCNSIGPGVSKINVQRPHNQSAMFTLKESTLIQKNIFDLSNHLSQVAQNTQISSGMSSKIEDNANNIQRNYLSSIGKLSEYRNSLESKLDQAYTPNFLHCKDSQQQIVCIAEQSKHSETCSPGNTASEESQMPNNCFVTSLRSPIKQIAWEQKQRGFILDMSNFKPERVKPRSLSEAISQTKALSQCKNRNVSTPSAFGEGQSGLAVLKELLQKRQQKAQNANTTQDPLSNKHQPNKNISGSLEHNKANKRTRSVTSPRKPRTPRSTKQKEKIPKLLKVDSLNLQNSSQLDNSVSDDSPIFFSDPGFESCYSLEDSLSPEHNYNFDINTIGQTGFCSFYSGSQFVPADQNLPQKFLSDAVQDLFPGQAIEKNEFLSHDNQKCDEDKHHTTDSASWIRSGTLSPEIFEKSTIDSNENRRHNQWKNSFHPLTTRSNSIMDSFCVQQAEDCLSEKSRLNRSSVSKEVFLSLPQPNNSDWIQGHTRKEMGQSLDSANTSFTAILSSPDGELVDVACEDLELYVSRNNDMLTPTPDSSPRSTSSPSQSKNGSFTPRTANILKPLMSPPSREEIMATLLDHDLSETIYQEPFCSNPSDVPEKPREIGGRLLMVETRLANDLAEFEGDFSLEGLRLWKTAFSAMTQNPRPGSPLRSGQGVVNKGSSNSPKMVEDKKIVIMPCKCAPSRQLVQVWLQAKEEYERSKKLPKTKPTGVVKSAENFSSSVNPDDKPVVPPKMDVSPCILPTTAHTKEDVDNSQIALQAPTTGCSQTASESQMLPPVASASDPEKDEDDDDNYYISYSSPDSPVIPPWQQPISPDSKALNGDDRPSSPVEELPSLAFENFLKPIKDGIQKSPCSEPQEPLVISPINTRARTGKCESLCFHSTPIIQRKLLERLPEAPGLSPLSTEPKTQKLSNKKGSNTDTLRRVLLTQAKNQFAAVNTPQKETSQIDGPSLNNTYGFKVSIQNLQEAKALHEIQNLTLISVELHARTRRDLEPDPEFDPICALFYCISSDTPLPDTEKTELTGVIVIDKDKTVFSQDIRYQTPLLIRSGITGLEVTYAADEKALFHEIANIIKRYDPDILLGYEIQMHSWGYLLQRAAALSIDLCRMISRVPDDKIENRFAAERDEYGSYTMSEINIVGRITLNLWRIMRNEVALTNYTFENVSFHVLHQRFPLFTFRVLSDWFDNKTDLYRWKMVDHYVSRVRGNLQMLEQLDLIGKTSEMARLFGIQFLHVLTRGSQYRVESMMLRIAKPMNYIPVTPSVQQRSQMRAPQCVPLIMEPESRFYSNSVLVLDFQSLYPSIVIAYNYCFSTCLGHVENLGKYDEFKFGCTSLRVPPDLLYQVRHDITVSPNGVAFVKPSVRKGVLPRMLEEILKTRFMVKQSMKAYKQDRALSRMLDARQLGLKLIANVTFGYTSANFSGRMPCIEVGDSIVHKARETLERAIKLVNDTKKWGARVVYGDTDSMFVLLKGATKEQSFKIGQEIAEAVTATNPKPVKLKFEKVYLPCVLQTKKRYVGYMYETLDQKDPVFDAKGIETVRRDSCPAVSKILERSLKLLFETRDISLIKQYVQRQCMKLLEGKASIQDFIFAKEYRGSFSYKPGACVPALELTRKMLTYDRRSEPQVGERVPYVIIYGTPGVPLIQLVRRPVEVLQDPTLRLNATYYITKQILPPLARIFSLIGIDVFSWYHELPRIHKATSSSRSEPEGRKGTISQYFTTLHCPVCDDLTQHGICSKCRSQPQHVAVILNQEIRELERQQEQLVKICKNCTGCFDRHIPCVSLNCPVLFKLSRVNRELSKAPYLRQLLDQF
UniProt Q9UI95: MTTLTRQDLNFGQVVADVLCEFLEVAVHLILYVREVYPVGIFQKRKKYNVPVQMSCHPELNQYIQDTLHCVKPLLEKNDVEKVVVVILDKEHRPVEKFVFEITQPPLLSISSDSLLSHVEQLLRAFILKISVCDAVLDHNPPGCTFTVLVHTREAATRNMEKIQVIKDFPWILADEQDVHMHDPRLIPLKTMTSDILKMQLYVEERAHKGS
UniProt Q9UQE7: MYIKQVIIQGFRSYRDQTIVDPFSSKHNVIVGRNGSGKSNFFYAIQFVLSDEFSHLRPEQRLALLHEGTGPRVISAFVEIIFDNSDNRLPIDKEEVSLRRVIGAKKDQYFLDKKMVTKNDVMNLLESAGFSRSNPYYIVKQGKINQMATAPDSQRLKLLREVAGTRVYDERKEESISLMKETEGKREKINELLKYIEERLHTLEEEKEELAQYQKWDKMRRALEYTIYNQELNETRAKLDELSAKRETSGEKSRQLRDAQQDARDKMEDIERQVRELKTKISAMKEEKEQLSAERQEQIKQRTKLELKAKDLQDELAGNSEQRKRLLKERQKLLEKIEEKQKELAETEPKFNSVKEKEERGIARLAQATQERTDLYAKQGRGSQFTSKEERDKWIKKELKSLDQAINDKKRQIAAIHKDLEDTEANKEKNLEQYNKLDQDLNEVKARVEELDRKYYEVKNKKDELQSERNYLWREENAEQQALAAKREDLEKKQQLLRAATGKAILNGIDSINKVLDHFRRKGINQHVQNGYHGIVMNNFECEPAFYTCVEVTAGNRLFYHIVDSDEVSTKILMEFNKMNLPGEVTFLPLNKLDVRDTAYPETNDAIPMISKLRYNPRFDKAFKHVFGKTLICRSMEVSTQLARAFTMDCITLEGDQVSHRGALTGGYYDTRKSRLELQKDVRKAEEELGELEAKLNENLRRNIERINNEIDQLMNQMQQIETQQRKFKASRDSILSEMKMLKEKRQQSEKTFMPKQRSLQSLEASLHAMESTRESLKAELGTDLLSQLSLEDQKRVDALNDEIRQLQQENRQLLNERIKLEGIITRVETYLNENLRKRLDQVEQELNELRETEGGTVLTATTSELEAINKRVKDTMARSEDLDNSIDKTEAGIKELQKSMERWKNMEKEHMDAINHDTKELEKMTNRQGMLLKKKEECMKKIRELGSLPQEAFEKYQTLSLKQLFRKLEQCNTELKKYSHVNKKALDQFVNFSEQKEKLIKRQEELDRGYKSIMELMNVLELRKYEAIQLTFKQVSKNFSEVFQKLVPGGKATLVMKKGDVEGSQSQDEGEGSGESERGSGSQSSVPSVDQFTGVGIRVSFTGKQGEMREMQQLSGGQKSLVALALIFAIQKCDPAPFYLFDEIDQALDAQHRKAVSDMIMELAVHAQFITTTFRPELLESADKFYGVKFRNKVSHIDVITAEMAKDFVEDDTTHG
UniProt P28340: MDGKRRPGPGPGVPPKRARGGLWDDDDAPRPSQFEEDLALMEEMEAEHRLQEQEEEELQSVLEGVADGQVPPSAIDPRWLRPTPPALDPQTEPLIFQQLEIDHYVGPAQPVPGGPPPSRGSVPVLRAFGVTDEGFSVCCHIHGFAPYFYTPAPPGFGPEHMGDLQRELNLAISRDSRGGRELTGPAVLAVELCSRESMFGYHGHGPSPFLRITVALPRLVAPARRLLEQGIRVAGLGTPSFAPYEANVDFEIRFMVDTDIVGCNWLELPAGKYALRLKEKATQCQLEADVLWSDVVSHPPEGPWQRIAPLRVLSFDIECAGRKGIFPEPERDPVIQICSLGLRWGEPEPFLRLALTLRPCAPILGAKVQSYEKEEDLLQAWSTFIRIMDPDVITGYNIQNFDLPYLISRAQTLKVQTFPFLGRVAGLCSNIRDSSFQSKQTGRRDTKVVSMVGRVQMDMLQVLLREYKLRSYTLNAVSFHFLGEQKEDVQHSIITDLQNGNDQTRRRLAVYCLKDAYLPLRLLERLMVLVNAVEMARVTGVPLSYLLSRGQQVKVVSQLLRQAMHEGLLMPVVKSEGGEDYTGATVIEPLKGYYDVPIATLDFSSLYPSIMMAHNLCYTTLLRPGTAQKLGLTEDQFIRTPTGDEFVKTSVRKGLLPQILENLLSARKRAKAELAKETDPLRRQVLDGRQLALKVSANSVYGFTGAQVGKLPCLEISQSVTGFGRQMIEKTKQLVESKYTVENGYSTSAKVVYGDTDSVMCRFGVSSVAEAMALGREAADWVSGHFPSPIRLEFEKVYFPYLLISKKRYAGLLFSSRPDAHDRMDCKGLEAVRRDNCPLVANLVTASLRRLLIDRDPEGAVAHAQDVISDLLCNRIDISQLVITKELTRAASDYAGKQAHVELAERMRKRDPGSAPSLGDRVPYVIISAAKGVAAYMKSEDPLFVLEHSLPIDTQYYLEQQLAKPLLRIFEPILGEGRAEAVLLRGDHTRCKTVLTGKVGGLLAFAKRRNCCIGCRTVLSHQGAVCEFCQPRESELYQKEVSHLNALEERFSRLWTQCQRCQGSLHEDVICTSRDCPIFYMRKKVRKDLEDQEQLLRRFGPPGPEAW
UniProt P49005: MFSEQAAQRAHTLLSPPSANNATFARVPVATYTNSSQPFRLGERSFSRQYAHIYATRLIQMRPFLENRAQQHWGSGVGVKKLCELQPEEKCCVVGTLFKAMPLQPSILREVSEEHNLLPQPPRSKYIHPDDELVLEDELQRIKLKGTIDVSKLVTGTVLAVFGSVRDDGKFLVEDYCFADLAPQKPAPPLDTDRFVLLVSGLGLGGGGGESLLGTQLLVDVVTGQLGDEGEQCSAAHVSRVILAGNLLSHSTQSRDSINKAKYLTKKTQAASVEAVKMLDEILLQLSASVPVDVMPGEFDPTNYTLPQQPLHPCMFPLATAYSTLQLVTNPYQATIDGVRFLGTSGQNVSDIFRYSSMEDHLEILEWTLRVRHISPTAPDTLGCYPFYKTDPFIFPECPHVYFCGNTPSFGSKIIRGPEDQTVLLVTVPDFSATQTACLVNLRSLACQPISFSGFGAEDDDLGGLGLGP

Experiments:
Experiment in all cases: affinity purification with mass spectrometry; FLAG-HA tandem purification from high-salt (400 mM KCl) nuclear extracts of HeLa S3 stably expressing the FH-tagged bait, dialysed to KETNG150; eluate analysed by mass spectrometry; empty vector as control
[1] = molecular target: T1, FLAG-HA-POLD3, stably expressed in HeLa S3 (human) (UniProt Q15054)
T1 sequence: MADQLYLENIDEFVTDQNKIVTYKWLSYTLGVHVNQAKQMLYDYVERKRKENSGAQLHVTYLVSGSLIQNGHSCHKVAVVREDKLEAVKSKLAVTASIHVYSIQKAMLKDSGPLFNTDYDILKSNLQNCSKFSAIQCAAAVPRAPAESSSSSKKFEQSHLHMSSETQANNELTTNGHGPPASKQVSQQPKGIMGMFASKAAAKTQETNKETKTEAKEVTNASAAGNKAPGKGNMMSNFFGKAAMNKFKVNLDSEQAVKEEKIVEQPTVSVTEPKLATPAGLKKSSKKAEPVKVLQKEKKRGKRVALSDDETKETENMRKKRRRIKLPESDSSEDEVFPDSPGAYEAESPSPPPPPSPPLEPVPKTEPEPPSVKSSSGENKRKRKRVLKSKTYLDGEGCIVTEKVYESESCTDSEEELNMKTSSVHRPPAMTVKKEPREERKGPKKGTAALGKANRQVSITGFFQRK

[2] = molecular target: T2, FLAG-HA-SPATA5, stably expressed in HeLa S3 (human) (UniProt Q8NB90)
T2 sequence: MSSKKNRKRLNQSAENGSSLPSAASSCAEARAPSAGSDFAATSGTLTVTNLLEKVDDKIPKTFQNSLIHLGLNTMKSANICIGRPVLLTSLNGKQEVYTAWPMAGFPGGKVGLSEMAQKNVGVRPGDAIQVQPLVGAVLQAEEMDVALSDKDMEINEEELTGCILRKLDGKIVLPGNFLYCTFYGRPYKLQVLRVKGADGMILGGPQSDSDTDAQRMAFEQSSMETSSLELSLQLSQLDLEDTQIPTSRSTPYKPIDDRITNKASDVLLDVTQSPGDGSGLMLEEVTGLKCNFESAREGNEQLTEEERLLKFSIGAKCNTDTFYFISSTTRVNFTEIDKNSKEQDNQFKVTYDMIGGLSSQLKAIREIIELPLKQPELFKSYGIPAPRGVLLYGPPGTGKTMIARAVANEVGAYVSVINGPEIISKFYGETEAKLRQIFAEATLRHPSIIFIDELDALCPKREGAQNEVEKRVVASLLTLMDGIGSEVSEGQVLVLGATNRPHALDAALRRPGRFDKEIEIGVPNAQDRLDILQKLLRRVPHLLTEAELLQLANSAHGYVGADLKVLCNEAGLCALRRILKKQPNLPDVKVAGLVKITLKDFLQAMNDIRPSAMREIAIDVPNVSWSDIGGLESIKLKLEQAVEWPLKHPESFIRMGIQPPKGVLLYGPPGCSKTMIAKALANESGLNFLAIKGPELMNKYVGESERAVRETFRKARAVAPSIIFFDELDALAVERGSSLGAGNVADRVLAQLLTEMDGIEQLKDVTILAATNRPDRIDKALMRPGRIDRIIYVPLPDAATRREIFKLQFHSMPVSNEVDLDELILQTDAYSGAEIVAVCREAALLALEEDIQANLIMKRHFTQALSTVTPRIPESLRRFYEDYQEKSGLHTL

[3] = molecular target: T3, FLAG-HA-SPATA5L1, stably expressed in HeLa S3 (human) (UniProt Q9BVQ7)
T3 sequence: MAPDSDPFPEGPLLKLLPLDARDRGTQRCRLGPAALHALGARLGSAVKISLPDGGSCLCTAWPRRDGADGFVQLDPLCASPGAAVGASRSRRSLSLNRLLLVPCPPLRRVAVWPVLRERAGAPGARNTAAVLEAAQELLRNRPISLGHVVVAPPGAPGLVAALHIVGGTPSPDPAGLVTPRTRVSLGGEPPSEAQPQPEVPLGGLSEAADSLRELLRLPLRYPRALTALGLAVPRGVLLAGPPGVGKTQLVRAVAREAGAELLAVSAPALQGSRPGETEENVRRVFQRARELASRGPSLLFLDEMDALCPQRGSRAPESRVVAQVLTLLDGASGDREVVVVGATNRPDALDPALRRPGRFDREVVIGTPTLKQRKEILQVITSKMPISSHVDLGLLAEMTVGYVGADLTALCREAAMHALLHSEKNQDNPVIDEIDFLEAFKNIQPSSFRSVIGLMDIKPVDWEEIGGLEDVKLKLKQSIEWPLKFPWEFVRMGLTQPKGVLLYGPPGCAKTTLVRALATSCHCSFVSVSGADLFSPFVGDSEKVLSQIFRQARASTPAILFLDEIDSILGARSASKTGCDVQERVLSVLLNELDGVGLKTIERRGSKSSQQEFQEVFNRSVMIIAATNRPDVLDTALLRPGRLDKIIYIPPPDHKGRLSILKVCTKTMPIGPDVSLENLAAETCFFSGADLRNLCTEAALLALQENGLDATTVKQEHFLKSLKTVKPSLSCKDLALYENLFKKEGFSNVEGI

Substance | binding [1] | binding [2] | binding [3]
REV3L (HeLa S3 nuclear extract) (from UniProt O60673 1-3130) | binds | – | –
REV7 (HeLa S3 nuclear extract) (from UniProt Q9UI95 1-211) | binds | – | –
SMC3 (HeLa S3 nuclear extract) (from UniProt Q9UQE7 1-1217) | – | binds | binds

More lines, now with the values ahead:

binding [1] | binding [2] | binding [3] | Substance
binds | binds | binds | POLD1 (HeLa S3 nuclear extract) (from UniProt P28340 1-1107)
binds | – | – | POLD2 (HeLa S3 nuclear extract) (from UniProt P49005 1-469)
